# At least one structure is not confirmed: it was looked up by name or label, or the drawing left a doubt.
# Experiments:
# [1] = test system: CRL2351 breast cancer cell; experiment: Cancer cell killing by CAR macrophages pre-treated with sunitinib; type: cell-based, human
# Human macrophages = experiment: mCherry mRNA expression in transfected macrophages (Incucyte); type: cell-based
# Protocol: Human macrophages were transfected with mCherry mRNA comprising m6AGCap1 and PsU or N1mPsU modifications and were then cultured for one day with different doses of IFN-γ. mCherry expression was monitored on an Incucyte® live imaging microscope.
# In order to determine whether an RNaseL inhibitor could rescue IFN-γ-induced instability of transfected mRNA, human macrophages were treated with 1 μM sunitinib (an RNaseL inhibitor) two hours prior to the transfection of mCherry mRNA comprising m6AGCap1 and PsU modifications. Transfected cells were then cultured for one day with different dosages of IFN-γ. mCherry expression was monitored on an Incucyte® live imaging microscope.
# The effect of another RNaseL inhibitor (RLI or ABCE1) was also tested to further validate the concept. Human macrophages were co-transfected with mRNA encoding mCherry comprising m6AGCap 1 and PsU modifications and with mRNA encoding ABCE1.
structure (smiles),measurement,setting,value
CCN(CC)CCNC(=O)c1c(C)[nH]c(/C=C2\C(=O)Nc3ccc(F)cc32)c1C [sunitinib],cancer killing ability,"[1]; 48 hour killing assay, FIG. 130C",improved cancer killing ability
same,cancer cell killing vs not pre-treated CAR macrophages,"[1]; pre-treated with 1 nM, FIG. 130B",higher cancer cell killing
same,IFN-γ-induced degradation of mRNA (mCherry expression),"Human macrophages; 1 μM two hours prior to transfection, FIG. 130A",rescued the IFN-γ-induced degradation of mRNA
same,"mCherry expression, pre-treatment added to ABCE1 co-transfection",Human macrophages; FIG. 131,further enhanced this effect
